Four molecules from patent publication US20040151715A1 (SCHERING, published 2004) can be followed below.

These are yes or no findings as the source states them, for the method shown. Binding seen in cells or lysates may run through a third protein. Some entries that bind do so weakly or less than the wild type.

Test [1] has as its target T1, human ADAM33 catalytic domain (human, UniProt Q9BZ11 204-409).
T1 construct: Expressed in Drosophila S2 cells as pre/pro/cat with a C-terminal Ser-Gly-His6 tag and processed at RGRR203/EARR; also called CAT domain; protease domain
T1 sequence: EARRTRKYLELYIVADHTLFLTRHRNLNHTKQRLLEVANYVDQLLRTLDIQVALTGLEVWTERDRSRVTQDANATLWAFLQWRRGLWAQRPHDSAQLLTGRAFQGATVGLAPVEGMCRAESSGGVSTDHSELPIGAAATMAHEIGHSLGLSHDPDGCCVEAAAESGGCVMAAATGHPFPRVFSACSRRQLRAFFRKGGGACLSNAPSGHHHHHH
In words: co-purification of the pro/CAT complex.

In test [2] the target is T1, human ADAM33 catalytic domain. In words: co-purification through chromatography; not separated by APMA, iodoacetamide or nonionic detergents.
The target of test [3] is T2, mouse ADAM33 CAT domain (mouse) (UniProt Q923W9).
T2 sequence (looked up): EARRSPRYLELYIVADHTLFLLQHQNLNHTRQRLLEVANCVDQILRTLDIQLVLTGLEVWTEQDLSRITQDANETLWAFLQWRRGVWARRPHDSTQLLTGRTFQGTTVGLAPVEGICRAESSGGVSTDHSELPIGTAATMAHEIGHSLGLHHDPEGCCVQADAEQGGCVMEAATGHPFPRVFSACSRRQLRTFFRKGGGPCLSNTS
In words: co-purification of mouse ADAM33 pro and CAT from Drosophila S2 conditioned medium.

B1: human ADAM33 pro domain C179A/D183N (protein)
chain: LQGHIPGQPVTPHWVLDGQPWRTVSLEEPVSKPDMGLVALEAEGQELLLELEKNHRLLAPGYIETHYGPDGQPVVLAPNHTDHCHYQGRVRGFPDSWVVLCTCSGMSGLITLSRNASYYLRPWPPRGSKDFSTHEIFRMEQLLTWKGTAGHRNPGNKAGMTSLPGGPQSRGRR
For the molecule B1, the binding entry in test [1] is “binds”.

B2: human ADAM33 pro domain K176I/C179A (protein)
chain: LQGHIPGQPVTPHWVLDGQPWRTVSLEEPVSKPDMGLVALEAEGQELLLELEKNHRLLAPGYIETHYGPDGQPVVLAPNHTDHCHYQGRVRGFPDSWVVLCTCSGMSGLITLSRNASYYLRPWPPRGSKDFSTHEIFRMEQLLTWIGTAGHRDPGNKAGMTSLPGGPQSRGRR
On to B2, for which, in test [1], the binding entry is given as “binds”.

B3: human ADAM33 pro domain (wild type) (protein)
chain: LQGHIPGQPVTPHWVLDGQPWRTVSLEEPVSKPDMGLVALEAEGQELLLELEKNHRLLAPGYIETHYGPDGQPVVLAPNHTDHCHYQGRVRGFPDSWVVLCTCSGMSGLITLSRNASYYLRPWPPRGSKDFSTHEIFRMEQLLTWKGTCGHRDPGNKAGMTSLPGGPQSRGRR
With B3, in test [2], the binding result is on record as “binds”.

B4: mouse ADAM33 pro domain (protein, UniProt Q923W9 30-204, looked up)
chain: RMFPGNAHGELVTPHWILEGRLWLKVTLEEPILKPDSVLVALEAEGQDLLLELEKKHKLLAPGYTETHYRPDGHPVVLSPNHTDHCQYHGRVRGFRESWVVLSTCSGMSGLIVLSSKVSYYLQPRTPGDTKDFPTHEIFRMEQLFTWRGVQRDKNSQYKAGMASLPHVPQSRVRR
For B4, the binding result in test [3] is given as “binds”.
